# Where a name gives a salt, the structure may show the parent alone. At least one compound was matched to its structure with a doubt left.
# Target: Human Thrombin (Homo sapiens, UniProt P00734)
# Assay: Inhibition of the amidase activity of thrombin (Kass)
# Type: biochemical
# Conditions: chromogenic substrate N-benzoyl-Phe-Val-Arg-p-nitroanilide; mean over range of concentrations
row,SMILES,Kass × 10^6 (L/mole) Human Thrombin
1,"CCS(=O)(=O)N[C@H](CC1CCCCC1)C(=O)N1CCC[C@H]1C(=O)NCc1ccc(C(=N)N)cc1.Cl [Example 80, EtSO2 -D-Cha-Pro-4-NHCH2 C6 H4 C(NH)NH2.HCl]","1,700. × 10^6 L/mole"

# Tested on: not listed separately
# Assay: Index of bioavailability (% relative activity from plasma TT, oral vs i.v.)
# Type: in vivo, rat
# Set-up: key: NC^1: screening not completed; low or very low activity observed on 20 mg/kg p.o.; NC^2: screening not completed; low or very low activity observed at 60 mg/kg p.o.; NC^3: screening not completed; low or very low activity observed at 50 mg/kg p.o
# Conditions: p.o. dose as in the note
# Procedure: Plasma thrombin time (TT) and activated partial thromboplastin time (APTT) are measured with a fibrometer. […] Parke Davis) at 37° C. […] Assays are done in duplicate and averaged. A measure of bioactivity, plasma thrombin time (TT), served as a substitute for the assay of parent compound on the assumption that increments in TT resulted from thrombin inhibition by parent only. The time course of the effect of the thrombin inhibitor upon TT is determined after i.v. bolus administration to anesthetized rats and after oral treatment of fasted conscious rats. Due to limitations of blood volume and the number of points required to determine the time course from time of treatment to the time when the response returned to pretreatment values, two populations of rats are used. Each sample population represented alternating sequential time points. The average TT over the time course is used to calculate area under the curve (AUC). The index of bioavailability is calculated by the formula shown below and is expressed as percent relative activity. The area under the curve (AUC) of the plasma TT time course is determined and adjusted for the dose. […] Bolus injection volume is 1 mL/kg for i.v., and 5 mL/kg for p.o. and infusion volume is 3 mL/hr.
row,"% oral/i.v. activity (Rat), screening not completed",SMILES
1,NC^2,"Cl.N=C(N)c1ccc(CNC(=O)[C@@H]2C[C@@H]3CCCC[C@@H]3N2C(=O)[C@@H](CC2CCCCC2)NCC(=O)O)cc1 (relative stereo) [Example 49, HOOCCH2 -D-Cha-cis-Ohi-p-NHCH2 C6 H4 C(NH)NH2.HCl]"
2,NC^2,"Cl.Cl.N=C(N)c1ccc(CNC(=O)C2CC3CCCCC3N2C(=O)C2NCCC3CCCCC32)cc1 [Example 42, D-1-Piq-cis-Ohi-p-NHCH2 C6 H4 C(NH)NH2.2HCl]"
3,NC^1,"Cl.N=C(N)c1ccc(CNC(=O)[C@@H]2CCCN2C(=O)[C@@H](CC2CCCCC2)NCC(=O)O)c(F)c1 [Example 71, HO2 CCH2 -D-Cha-Pro-4-NHCH2 -3-F-benzamidine.HCl]"

# More lines, now with the values behind:
row,SMILES,"% oral/i.v. activity (Rat), screening not completed"
1,"CCS(=O)(=O)N[C@H](Cc1ccccc1)C(=O)N1[C@H](C(=O)NCc2ccc(C(=N)N)cc2)C[C@@H]2CCCC[C@@H]21 (relative stereo) [Example 45, EtSO2 -Phe-cis-Ohi-p-NHCH2 C6 H4 C(NH)NH2.HCl]",NC^2
2,"N=C(N)c1ccc(CNC(=O)[C@@H]2C[C@@H]3CCCC[C@@H]3N2C(=O)[C@@H](Cc2ccccc2)NCC(=O)O)cc1 (relative stereo) [Example 47, HOOCCH2 -D-Phe-cis-Ohi-p-NHCH2 C6 H4 C(NH)NH2.HCl]",NC^2
3,"Cl.N=C(N)c1cc(F)c(CNC(=O)[C@@H]2CCCN2C(=O)[C@@H](CC2CCCCC2)NCC(=O)O)c(F)c1 [Example 72, HO2 CCH2 -D-Cha-Pro-4-NHCH2 -3,5-F2 -benzamidine.HCl]",NC^1

# From patent publication US5705487A, “Antithrombotic agents” (priority 1995, dated 1998)
